# From the supplement of paper PMC8728848
# The list shows a part of the results.
# B1: DC-Sign-R (Homo sapiens), Q9H2X3 (protein)
# chain: MSDSKEPRVQQLGLLEEDPTTSGIRLFPRDFQFQQIHGHKSSTGCLGHGALVLQLLSFMLLAGVLVAILVQVSKVPSSLSQEQSEQDAIYQNLTQLKAAVGELSEKSKLQEIYQELTQLKAAVGELPEKSKLQEIYQELTRLKAAVGELPEKSKLQEIYQELTRLKAAVGELPEKSKLQEIYQELTRLKAAVGELPEKSKLQEIYQELTELKAAVGELPEKSKLQEIYQELTQLKAAVGELPDQSKQQQIYQELTDLKTAFERLCRHCPKDWTFFQGNCYFMSNSQRNWHDSVTACQEVRAQLVVIKTAEEQNFLQLQTSRSNRFSWMGLSDLNQEGTWQWVDGSPLSPSFQRYWNSGEPNNSGNEDCAEFSGSGWNDNRCDVDNYWICKKPAACFRDE
# Legend:
# Experiment in all cases: glycan array binding signal (z-score within array); higher = stronger binding
# Conditions in all cases: glycan notation: IUPAC condensed, linker removed
# [1] = molecular target: Gal3S(b1-3)[Fuc(a1-4)]GlcNAc
# Outline: (§1)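 The Consortium for Functional Glycomics database supplied 3228 glycan arrays, of which those lacking an available protein sequence were dropped. The binding signal, a within-array Z-score, was averaged across arrays of the same protein sequence and across linkers. Negative scores can be read as non-binding.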
# Gal3S(b1-4)Glc = molecular target: Gal3S(b1-4)Glc
# Outline: as §1
# Gal3S(b1-4)Glc6S = molecular target: Gal3S(b1-4)Glc6S
# Outline: as §1
# Gal3S(b1-4)GlcNAc = molecular target: Gal3S(b1-4)GlcNAc
# Outline: as §1
# [2] = molecular target: Gal3S(b1-4)[Fuc(a1-3)]Glc6S
# Outline: as §1
# [3] = molecular target: Gal3S(b1-4)[Fuc(a1-3)]GlcNAc
# Outline: as §1
# [4] = molecular target: Gal3S(b1-4)[Fuc(a1-3)]GlcNAc6S
# Outline: as §1
# Gal3S4S(b1-4)GlcNAc = molecular target: Gal3S4S(b1-4)GlcNAc
# Outline: as §1
# Gal3S6S(b1-4)GlcNAc = molecular target: Gal3S6S(b1-4)GlcNAc
# Outline: as §1
# Gal3S6S(b1-4)GlcNAc6S = molecular target: Gal3S6S(b1-4)GlcNAc6S
# Outline: as §1
# Gal4S(b1-4)GlcNAc = molecular target: Gal4S(b1-4)GlcNAc
# Outline: as §1
# Gal4S6S(b1-4)GlcNAc = molecular target: Gal4S6S(b1-4)GlcNAc
# Outline: as §1
# Gal6P(b1-4)GlcNAc = molecular target: Gal6P(b1-4)GlcNAc
# Outline: as §1
# Gal6S(b1-3)GlcNAc = molecular target: Gal6S(b1-3)GlcNAc
# Outline: as §1
# Gal6S(b1-3)GlcNAc6S = molecular target: Gal6S(b1-3)GlcNAc6S
# Outline: as §1
# Gal6S(b1-4)Glc = molecular target: Gal6S(b1-4)Glc
# Outline: as §1
# Gal6S(b1-4)Glc6S = molecular target: Gal6S(b1-4)Glc6S
# Outline: as §1
# Gal6S(b1-4)GlcNAc = molecular target: Gal6S(b1-4)GlcNAc
# Outline: as §1
# Gal6S(b1-4)GlcNAc6S = molecular target: Gal6S(b1-4)GlcNAc6S
# Outline: as §1
# GalNAc(a1-3)Gal = molecular target: GalNAc(a1-3)Gal
# Outline: as §1
# GalNAc(a1-3)GalNAc = molecular target: GalNAc(a1-3)GalNAc
# Outline: as §1
# [5] = molecular target: GalNAc(a1-3)GalNAc(b1-3)Gal(a1-4)Gal(b1-4)Glc
# Outline: as §1
# [6] = molecular target: GalNAc(a1-3)GalNAc(b1-3)Gal(a1-4)Gal(b1-4)GlcNAc
# Outline: as §1
# GalNAc(b1-3)Gal = molecular target: GalNAc(b1-3)Gal
# Outline: as §1
# [7] = molecular target: GalNAc(b1-3)Gal(a1-4)Gal(b1-4)GlcNAc
# Outline: as §1
# [8] = molecular target: GalNAc(b1-3)Gal(a1-4)Gal(b1-4)GlcNAc(b1-3)Gal(b1-4)Glc
# Outline: as §1
# [9] = molecular target: GalNAc(b1-3)Gal(a1-6)Gal(b1-4)Glc
# Outline: as §1
# GalNAc(b1-3)GalNAc = molecular target: GalNAc(b1-3)GalNAc
# Outline: as §1
# GalNAc(b1-3)GlcNAc = molecular target: GalNAc(b1-3)GlcNAc
# Outline: as §1
# GalNAc(b1-4)Gal(b1-4)Glc = molecular target: GalNAc(b1-4)Gal(b1-4)Glc
# Outline: as §1
# GalNAc(b1-4)GlcNAc = molecular target: GalNAc(b1-4)GlcNAc
# Outline: as §1
# [10] = molecular target: GalNAc(b1-4)GlcNAc(b1-2)Man
# Outline: as §1
# [11] = molecular target: GalNAc(b1-4)GlcNAc(b1-2)Man(a1-3)[GalNAc(b1-4)GlcNAc(b1-2)Man(a1-6)]Man(b1-4)GlcNAc(b1-4)GlcNAc
# Outline: as §1
# [12] = molecular target: GalNAc(b1-4)GlcNAc(b1-3)GalNAc(b1-4)GlcNAc
# Outline: as §1
# GalNAc(b1-4)GlcNAc6S = molecular target: GalNAc(b1-4)GlcNAc6S
# Outline: as §1
# GalNAc(b1-6)GalNAc = molecular target: GalNAc(b1-6)GalNAc
# Outline: as §1
# GalNAc3S(b1-4)GlcNAc = molecular target: GalNAc3S(b1-4)GlcNAc
# Outline: as §1
binder,measurement,setting,value
B1,glycan array binding signal (z-score),[1],0.513
same,glycan array binding signal (z-score),Gal3S(b1-4)Glc,-0.46
same,glycan array binding signal (z-score),Gal3S(b1-4)Glc6S,-0.395
same,glycan array binding signal (z-score),Gal3S(b1-4)GlcNAc,0.181
same,glycan array binding signal (z-score),[2],-0.259
same,glycan array binding signal (z-score),[3],0.631
same,glycan array binding signal (z-score),[4],-0.567
same,glycan array binding signal (z-score),Gal3S4S(b1-4)GlcNAc,-0.058
same,glycan array binding signal (z-score),Gal3S6S(b1-4)GlcNAc,-0.003
same,glycan array binding signal (z-score),Gal3S6S(b1-4)GlcNAc6S,0.202
same,glycan array binding signal (z-score),Gal4S(b1-4)GlcNAc,-0.49
same,glycan array binding signal (z-score),Gal4S6S(b1-4)GlcNAc,0.167
same,glycan array binding signal (z-score),Gal6P(b1-4)GlcNAc,-0.856
same,glycan array binding signal (z-score),Gal6S(b1-3)GlcNAc,-0.57
same,glycan array binding signal (z-score),Gal6S(b1-3)GlcNAc6S,0.262
same,glycan array binding signal (z-score),Gal6S(b1-4)Glc,-0.744
same,glycan array binding signal (z-score),Gal6S(b1-4)Glc6S,-0.383
same,glycan array binding signal (z-score),Gal6S(b1-4)GlcNAc,0.34
same,glycan array binding signal (z-score),Gal6S(b1-4)GlcNAc6S,0.089
same,glycan array binding signal (z-score),GalNAc(a1-3)Gal,-0.027
same,glycan array binding signal (z-score),GalNAc(a1-3)GalNAc,-0.163
same,glycan array binding signal (z-score),[5],0.156
same,glycan array binding signal (z-score),[6],0.343
same,glycan array binding signal (z-score),GalNAc(b1-3)Gal,0.88
same,glycan array binding signal (z-score),[7],-0.247
same,glycan array binding signal (z-score),[8],-0.035
same,glycan array binding signal (z-score),[9],2.04
same,glycan array binding signal (z-score),GalNAc(b1-3)GalNAc,-0.437
same,glycan array binding signal (z-score),GalNAc(b1-3)GlcNAc,-0.545
same,glycan array binding signal (z-score),GalNAc(b1-4)Gal(b1-4)Glc,0.004
same,glycan array binding signal (z-score),GalNAc(b1-4)GlcNAc,-0.254
same,glycan array binding signal (z-score),[10],-0.095
same,glycan array binding signal (z-score),[11],0.122
same,glycan array binding signal (z-score),[12],1.46
same,glycan array binding signal (z-score),GalNAc(b1-4)GlcNAc6S,0.725
same,glycan array binding signal (z-score),GalNAc(b1-6)GalNAc,0.447
same,glycan array binding signal (z-score),GalNAc3S(b1-4)GlcNAc,1.28

# Given tab-delimited: entries from further up
binder	measurement	setting	value
B1	glycan array binding signal (z-score)	GalNAc(a1-3)GalNAc	-0.163
same	glycan array binding signal (z-score)	[5]	0.156
